Measurements published in the supplement of paper PMC8728848.
The other results are listed elsewhere or left out.

Legend:
Assay in all cases: glycan array binding signal (z-score within array); higher = stronger binding
Settings in all cases: glycan notation: IUPAC condensed, linker removed
[1] = target: GlcNAc(b1-3)Gal(b1-4)GlcNAc(b1-3)GalNAc
Outline: (§1)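 The binding signal is a Z-score computed within each array. Data were drawn from 3228 arrays in the Consortium for Functional Glycomics database, restricted to those with a known protein sequence. Scores were averaged over arrays of the same protein sequence at different concentrations or buffers, and over linkers, and negative values can be taken as non-binding.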

[2] = target: GlcNAc(b1-3)Gal(b1-4)GlcNAc(b1-3)[GlcNAc(b1-3)Gal(b1-4)GlcNAc(b1-3)]GalNAc
Outline: as §1

[3] = target: GlcNAc(b1-3)Gal(b1-4)GlcNAc(b1-6)[Gal(b1-3)]GalNAc
Outline: as §1

[4] = target: GlcNAc(b1-3)Gal(b1-4)GlcNAc(b1-6)[GlcNAc(b1-3)Gal(b1-3)]GalNAc
Outline: as §1

[5] = target: GlcNAc(b1-3)Gal(b1-4)GlcNAc(b1-6)[GlcNAc(b1-3)]Gal(b1-4)GlcNAc
Outline: as §1

GlcNAc(b1-3)GalNAc = target: GlcNAc(b1-3)GalNAc
Outline: as §1

GlcNAc(b1-3)Man = target: GlcNAc(b1-3)Man
Outline: as §1

[6] = target: GlcNAc(b1-3)[GlcNAc(b1-4)][GlcNAc(b1-6)]GlcNAc
Outline: as §1

[7] = target: GlcNAc(b1-3)[GlcNAc(b1-6)]Gal(b1-4)GlcNAc
Outline: as §1

[8] = target: GlcNAc(b1-3)[GlcNAc(b1-6)]GalNAc
Outline: as §1

[9] = target: GlcNAc(b1-4)Gal(b1-4)GlcNAc
Outline: as §1

GlcNAc(b1-4)GlcNAc = target: GlcNAc(b1-4)GlcNAc
Outline: as §1

[10] = target: GlcNAc(b1-4)GlcNAc(b1-4)GlcNAc
Outline: as §1

[11] = target: GlcNAc(b1-4)GlcNAc(b1-4)GlcNAc(b1-4)GlcNAc(b1-4)GlcNAc
Outline: as §1

[12] = target: GlcNAc(b1-4)GlcNAc(b1-4)GlcNAc(b1-4)GlcNAc(b1-4)GlcNAc(b1-4)GlcNAc
Outline: as §1

[13] = target: GlcNAc(b1-4)[GlcNAc(b1-6)]GalNAc
Outline: as §1

[14] = target: GlcNAc(b1-6)Gal(b1-4)GlcNAc
Outline: as §1

GlcNAc(b1-6)GalNAc = target: GlcNAc(b1-6)GalNAc
Outline: as §1

[15] = target: GlcNAc6S(b1-3)Gal(b1-4)GlcNAc
Outline: as §1

Kdn(a2-3)Gal(b1-3)GalNAc = target: Kdn(a2-3)Gal(b1-3)GalNAc
Outline: as §1

Kdn(a2-3)Gal(b1-3)GlcNAc = target: Kdn(a2-3)Gal(b1-3)GlcNAc
Outline: as §1

Kdn(a2-3)Gal(b1-4)Glc = target: Kdn(a2-3)Gal(b1-4)Glc
Outline: as §1

Kdn(a2-3)Gal(b1-4)GlcNAc = target: Kdn(a2-3)Gal(b1-4)GlcNAc
Outline: as §1

[16] = target: Kdn(a2-3)Gal(b1-4)[Fuc(a1-3)]GlcNAc
Outline: as §1

Kdn(a2-6)Gal(b1-4)GlcNAc = target: Kdn(a2-6)Gal(b1-4)GlcNAc
Outline: as §1

[17] = target: Man(a1-2)Man(a1-2)Man(a1-3)Man
Outline: as §1

[18] = target: Man(a1-2)Man(a1-2)Man(a1-6)[Man(a1-3)]Man
Outline: as §1

Man(a1-2)Man(a1-3)Man = target: Man(a1-2)Man(a1-3)Man
Outline: as §1

[19] = target: Man(a1-2)Man(a1-3)[Man(a1-2)Man(a1-6)]Man
Outline: as §1

[20] = target: Man(a1-2)Man(a1-3)[Man(a1-2)Man(a1-6)]Man(a1-6)[Man(a1-2)Man(a1-2)Man(a1-3)]Man
Outline: as §1

B1: GroEL (Clostridium difficile), Q18CT5 (protein)
chain: MAKEIKFSEETRRALEAGVNKLADTVKVTLGPKGRNVILDKKFGSPLITNDGVTIAKEIELEDRFENMGAQLVKEVATKTNDVAGDGTTTATVLAQAIIREGLKNVTAGANPILLRKGIQKAVTVAVEELKNQSRIVETQEAISQVASISAGDEEVGKLIAEAMEIVGKDGVITVEESQTMNTELDAVEGMQFDRGFVSAYMVTDVDKMEAVLNDPYILITDKKISNIQELLPVLEQIVQQGKKLLIIAEDVEGEALSTLVVNKLRGTFDVVAVKAPGFGDRRKEMLQDIAILTGAQVISEELGYDLKEADLSMLGRASSVKVTKESTTIVDGSGDKKAIEDRVTQIKHQVEQTTSDFDREKLMERLAKLAGGVAVVKVGAATEVELKERKLRIEDALNATRAAVEEGIVAGGGTAFVSVIPAIGTLIESLEGEVKLGAQIVKKALEEPLRQIAINAGLEGAVIVQNVVNSEAETGFDALNEKYVNMIEAGIVDPTKVSRSALQNAASIASTFLTTEAAVADLPEKEDAGMPGMGGGMPGMM
[1]
  glycan array binding signal (z-score): -1.82
[2]
  glycan array binding signal (z-score): 1.1
[3]
  glycan array binding signal (z-score): -1.27
[4]
  glycan array binding signal (z-score): -0.419
[5]
  glycan array binding signal (z-score): 0.065
GlcNAc(b1-3)GalNAc
  glycan array binding signal (z-score): -0.166
GlcNAc(b1-3)Man
  glycan array binding signal (z-score): -0.312
[6]
  glycan array binding signal (z-score): -0.786
[7]
  glycan array binding signal (z-score): -0.466
[8]
  glycan array binding signal (z-score): -0.491
[9]
  glycan array binding signal (z-score): 0.332
GlcNAc(b1-4)GlcNAc
  glycan array binding signal (z-score): -0.465
[10]
  glycan array binding signal (z-score): -1.06
[11]
  glycan array binding signal (z-score): 0.295
[12]
  glycan array binding signal (z-score): -1.09
[13]
  glycan array binding signal (z-score): -2.7
[14]
  glycan array binding signal (z-score): -1.06
GlcNAc(b1-6)GalNAc
  glycan array binding signal (z-score): -0.22
[15]
  glycan array binding signal (z-score): 1.61
Kdn(a2-3)Gal(b1-3)GalNAc
  glycan array binding signal (z-score): -0.189
Kdn(a2-3)Gal(b1-3)GlcNAc
  glycan array binding signal (z-score): -0.759
Kdn(a2-3)Gal(b1-4)Glc
  glycan array binding signal (z-score): -0.071
Kdn(a2-3)Gal(b1-4)GlcNAc
  glycan array binding signal (z-score): 0.379
[16]
  glycan array binding signal (z-score): 1.35
Kdn(a2-6)Gal(b1-4)GlcNAc
  glycan array binding signal (z-score): -0.518
[17]
  glycan array binding signal (z-score): 2.16
[18]
  glycan array binding signal (z-score): -0.387
Man(a1-2)Man(a1-3)Man
  glycan array binding signal (z-score): -0.993
[19]
  glycan array binding signal (z-score): -1.49
[20]
  glycan array binding signal (z-score): -0.328
